In patent publication US7238857:
Negatives hold for the conditions tested.

By UniProt entry, the sequences of proteins in these tests, tags left out. Where a name states a change or a piece, a line headed by the entry shows the natural chain unless it says otherwise.
UniProt Q40478: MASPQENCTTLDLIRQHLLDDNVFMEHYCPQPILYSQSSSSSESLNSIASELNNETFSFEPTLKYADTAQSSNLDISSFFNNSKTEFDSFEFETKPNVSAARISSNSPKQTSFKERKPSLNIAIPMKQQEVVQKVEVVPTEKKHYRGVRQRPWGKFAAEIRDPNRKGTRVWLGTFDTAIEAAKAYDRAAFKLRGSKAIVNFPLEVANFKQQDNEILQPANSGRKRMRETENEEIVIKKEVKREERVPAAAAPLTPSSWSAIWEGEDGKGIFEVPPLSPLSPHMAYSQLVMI
UniProt Q40477: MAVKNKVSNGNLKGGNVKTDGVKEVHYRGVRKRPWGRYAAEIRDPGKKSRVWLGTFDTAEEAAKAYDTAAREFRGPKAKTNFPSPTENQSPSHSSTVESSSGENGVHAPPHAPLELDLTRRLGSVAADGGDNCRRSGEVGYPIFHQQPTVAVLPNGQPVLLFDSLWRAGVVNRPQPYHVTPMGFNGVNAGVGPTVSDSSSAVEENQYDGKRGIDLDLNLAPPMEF
UniProt Q40476: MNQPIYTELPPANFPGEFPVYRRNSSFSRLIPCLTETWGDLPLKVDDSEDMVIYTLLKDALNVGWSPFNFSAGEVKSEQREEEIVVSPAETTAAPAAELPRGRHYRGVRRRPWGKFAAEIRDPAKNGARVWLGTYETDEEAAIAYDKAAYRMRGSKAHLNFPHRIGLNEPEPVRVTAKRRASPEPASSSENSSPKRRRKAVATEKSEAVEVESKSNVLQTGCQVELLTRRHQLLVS
UniProt Q40479: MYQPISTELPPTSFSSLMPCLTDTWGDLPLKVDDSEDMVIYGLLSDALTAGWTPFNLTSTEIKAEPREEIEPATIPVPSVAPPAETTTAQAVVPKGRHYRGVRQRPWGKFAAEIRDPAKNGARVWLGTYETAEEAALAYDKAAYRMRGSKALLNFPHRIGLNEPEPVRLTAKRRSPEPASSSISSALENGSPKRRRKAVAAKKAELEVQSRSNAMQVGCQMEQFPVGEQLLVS

Tests used:
Experiment in all cases: activity assay
ERF4 (Nicotiana tabacum) = ERF4 (Nicotiana tabacum) (UniProt Q40478); details: no effect on in vitro transcription from pmERE; purified recombinant protein; protein details: His tag (pET15b, Novagen); variant of ERE (2x GCC box)
ERF3 (Nicotiana tabacum) = ERF3 (Nicotiana tabacum) (UniProt Q40477); details: no effect on in vitro transcription from pmERE; purified recombinant protein; protein details: His tag (pET15b, Novagen); variant of ERE (2x GCC box)
ERF1 (Nicotiana tabacum) = ERF1 (Nicotiana tabacum) (UniProt Q40476); details: no effect on in vitro transcription from pmERE; purified recombinant protein; protein details: His tag (pET15b, Novagen); variant of ERE (2x GCC box)
ERF2 (Nicotiana tabacum) = ERF2 (Nicotiana tabacum) (UniProt Q40479); details: no amplification of in vitro transcription from pmERE; purified recombinant protein; protein details: His tag (pET15b, Novagen); variant of ERE (2x GCC box)

Measured: activity on this sequence

GATCTCATAAGATCCTCCACTAAAATAAGACCGATCAAATAAGATCCTCCATG / GATCCATGGAGGATCTTATTTGATCGGTCTTATTTTAGTGGAGGATCTTATGA [mERE (mutant GCC box)]
not active: all assays above
